Experimental data published in PubChem BioAssay AID624297 (National Center for Advancing Translational Sciences (NCATS), 2012).
Hit rate of the full screen: of about 340,000 compounds, about 6,200 (1.8%) were called active. The inconclusive results got no clear call from the source; some entries with a clear call stand among them for comparison. Calls follow the shape of the dose curve; as a rule, active = well fitted activation curve with a large enough effect; inconclusive = small, poorly fitted or top-dose-only effect; inactive = no such curve, though single readings can be large or run the other way. Where the call is inconclusive, the potency comes from a doubtful curve fit.

Assay: A quantitative high throughput screen for small molecules that induce DNA re-replication in SW480 colon adenocarcinoma cells. Also: nearly all actives have a fitted effect of over 55% in size. As to re-replication activation: % of control where 0% means no effect.
Details: Hoechst DNA content imaging, 48 h; re-replication activation: at 46.1 µM (top of the series) unless noted
Procedure, shortened: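 250 cells/well; 23 nL cpd via pin tool; 48 hr, 37 C, 5% CO2; Hoechst 40 min; imager read of total nuclear intensity, ex 405/em 500-530 nm.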
Potency is read from the fitted curve at half-maximal effect.

SMILES	Potency	re-replication activation
COc1cc(C2=NOC(C(=O)NCc3ccc(F)cc3)C2)cc(OC)c1OC (stereo not drawn)	active: 0.731 µM	–
COc1ccccc1NC(=O)N(CCN1CCCC1)Cc1cc2cc(C)ccc2[nH]c1=O	inconclusive: 32.6 µM [activator, partial curve, poor fit]	–
CN(Cc1ccccc1)c1ccc(C(CC(N)=O)NC(=O)Cc2ccc(Br)cc2)cc1[N+](=O)[O-] (stereo not drawn)	inconclusive: 18.4 µM [activator, single point]	–
O=S(=O)(NCC(c1ccco1)N1CCOCC1)c1ccc(Cl)cc1 (stereo not drawn)	–	inactive: 1.19%
CCN1C(=O)[C@H]2[C@H]3CN=C(SCc4ccc(OC)cc4)N3[C@@](CC)(C(=O)OC)[C@H]2C1=O	inconclusive: 0.92 µM [activator, single point]	–
CCN(CC)C(=O)N1CCN(c2c([N+](=O)[O-])c(=O)oc3ccccc23)CC1	–	inactive: 1.01%
COc1cccc(CN(C)C(=O)c2ccccc2Sc2ccccc2C#N)c1	inconclusive: 25.9 µM [activator, partial curve, poor fit]	–
O=C(/C=C/Nc1ccc(F)c(Cl)c1)c1ccco1	–	inactive: 0.797%
COc1c(Cl)cnn(-c2ccccc2)c1=O	inconclusive: 29.1 µM [activator, single point]	–
Cc1cc(C(=O)N/N=C2\CC(=O)c3ccccc32)c(C)n1-c1ccccc1	inconclusive: 9.2 µM [activator, partial curve, poor fit]	–
COc1ccc(C(=O)NCC(=O)N/N=C/c2cccc(OC(=O)c3ccco3)c2)cc1OC	–	inactive: -6.99%
CC1Sc2ccc(S(=O)(=O)CCC(=O)NC3CCCC(C)C3C)cc2NC1=O (stereo not drawn)	inconclusive: 18.4 µM [activator, single point]	–
O=S(=O)(/N=C(/Nc1cccc2ccccc12)c1ccccc1)c1cccs1	–	inactive: 4.94%
Cn1c(SCc2cccc(F)c2)nnc1-c1ccncc1	–	inactive: -2.2%
Cc1ccccc1S(=O)(=O)Oc1ccc2ccc(O)cc2c1	inconclusive: 29.1 µM [activator, partial curve, poor fit]	–
Cc1nc2c3cc(F)ccc3n(Cc3ccccc3F)c2s1	inconclusive: 25.9 µM [activator, single point]	–
O=C(CSc1nnc2ccccn12)NC(=O)c1ccccc1Cl	inconclusive: 18.4 µM [activator, single point]	–
COc1ccc2c(c1)[C@H]1[C@H](CO2)[C@H](c2ccccc2)[C@]2(C)C(=O)Nc3ccc(C)cc3C(=O)N12	inconclusive: 18.4 µM [activator, single point]	–
COc1cccc(NC(=O)CNC(=O)N2CC(=O)Nc3ccccc32)c1	inconclusive: 23.1 µM [activator, partial curve, poor fit]	–
O=C(Nc1ccc2c(c1)C(=O)N(c1ccccc1)C2=O)c1cccs1	–	inactive: 13.7%
O=C(CN1CCN(c2ccccn2)CC1)Nc1ccccc1C(=O)Nc1ccccc1	inconclusive: 7.31 µM [activator, partial curve, poor fit]	–
c1ccc(Nc2nc(N3CCOCC3)nc(N3CCOCC3)n2)cc1	–	inactive: 18.5%
Cc1cc(C(=O)OCC(=O)N2CCCCCC2)ccc1[N+](=O)[O-]	–	inactive: -2.61%

SMILES	Potency	re-replication activation
CCOC(=O)[C@@H](C)NS(=O)(=O)N(Cc1ccccc1)[C@H](C(=O)OC)C(C)C	inconclusive: 25.9 µM [activator, single point]	–
O=C(Nc1ccc(Cl)cc1)c1cc(Br)ccc1OCC(=O)N1CCOCC1	inconclusive: 18.4 µM [activator, single point]	–
O=C(NCC(=O)N1CCCC(C(F)(F)F)C1)c1ccc2ccccc2c1 (stereo not drawn)	active: 18.4 µM	–
CCOC(=O)c1oc2ccccc2c1NC(=O)COc1ccc(F)cc1	–	inactive: -3.31%
CCOc1ccc(N2C(=O)CC(N(Cc3ccco3)C(C)=O)C2=O)cc1 (stereo not drawn)	–	inactive: -4.84%
COc1ccccc1NC(=O)C(=O)c1cn(CC(=O)N2CCCC2)c2ccccc12	inconclusive: 23.1 µM [activator, single point]	–
O=C(/C=C/c1cccs1)Nc1ccc(Br)cn1	inconclusive: 0.326 µM [activator, full curve, poor fit]	–
Cc1[nH]c2ccc(C(=O)OC(C)C(=O)NCc3ccccc3)cc2c1C (stereo not drawn)	inconclusive: 31.6 µM [activator, single point]	–
Cc1onc(-c2ccccc2)c1CNC(=O)Nc1ccccc1	inconclusive: 2.91 µM [activator, full curve, poor fit]	–
COc1ccc(N=c2ssnc2Cl)cc1	–	inactive: 0.776%
CCOC(=O)c1cc2c(=O)n3ccccc3nc2n(C(C)C)c1=NC(=O)c1ccncc1	–	inactive: 17.5%
COc1ccc(C2CC(=O)c3cnn(-c4nc(C)cc(C)n4)c3C2)cc1 (stereo not drawn)	inconclusive: 29.1 µM [activator, single point]	–
COC(=O)c1ccc(COc2ncnc3ccccc23)o1	inconclusive: 16.4 µM [activator, single point]	–
CN(Cc1ccccc1)C(=O)COC(=O)c1ccc[nH]c1=O	inconclusive: 1.16 µM [activator, full curve, poor fit]	–
CCn1c(C)c(/C=N/Nc2nc3ccccc3s2)c2ccccc21	inconclusive: 25.1 µM [activator, single point]	–
COc1cc(/C=C/c2nc3ccccc3c(=O)[nH]2)ccc1OC(F)F	–	inactive: 0.192%
Cc1ccc(-c2nnc(Cc3ccc(Cl)cc3)o2)cc1	–	inactive: 1.36%
C[C@H]1CN=C(N(C)C)N1CCCCc1ccccc1	inconclusive: 0.103 µM [activator, full curve, poor fit]	–
O=C(c1ccccc1)C1OC1C(=O)c1ccccc1 (stereo not drawn)	active: 14.6 µM	–
C=C(NC(=O)C(=C)NC(=O)c1csc(C2=NC3c4csc(n4)C4NC(=O)c5csc(n5)C(C(C)(O)C(C)O)NC(=O)C5CSC(=N5)/C(=C/C)NC(=O)C(C(C)O)NC(=O)c5csc(n5)C3(CC2)NC(=O)C(C)NC(=O)C(=C)NC(=O)C(=C)NC(=O)C(C(C)C)NC2C=Cc3c(C(C)O)cc(nc3C2O)C(=O)OC4C)n1)C(N)=O (stereo not drawn)	active: 1.16 µM	–
CCCC[C@H]1COCCS(=O)(=O)N1Cc1ccc(C)cc1	–	inactive: -4.97%
Cc1ccc(C2=NOC(=O)/C2=C\C=C\c2ccccc2)cc1	inconclusive: 29.1 µM [activator, single point]	–
COc1ccc2c(c1OC)CCC2=O	–	inactive: 0.86%

SMILES	Potency	re-replication activation
O=C(c1ccc(Cl)cc1)C(CN1CCCC1)c1ccccc1 (stereo not drawn)	inconclusive: 4.61 µM [activator, single point]	–
O=C(CCC(=O)c1ccc(F)cc1)OCc1nnc(-c2ccc([N+](=O)[O-])cc2)o1	–	inactive: -4.16%
CN(C(=O)c1cccc(NC(=O)Cc2ccc(NC(=O)C3CCN(C(=O)C4CCC4)CC3)cc2)c1)C1CCCCC1	inconclusive: 6.51 µM [activator, partial curve, poor fit]	–
O=C(NC(=S)Nc1ccccc1O)c1cncc(Br)c1	inconclusive: 29.1 µM [activator, single point]	–
CCN1CCN(Cc2ccc(NC(=O)c3cc(NC(=O)c4cc(C)on4)cc(OC)c3)cc2C(F)(F)F)CC1	inconclusive: 29.1 µM [activator, partial curve, poor fit]	–
O=C1OCCN1CC(=O)N1CCc2c([nH]c3ccccc23)C1c1ccccn1 (stereo not drawn)	–	inactive: -7.42%
O=[N+]([O-])c1ccc(O)c(/C=N/Nc2ccccn2)c1	active: 1.3 µM	–
CC(C)(C)OC(=O)COc1cc(OCC(=O)OC(C)(C)C)c2c(=O)cc(-c3ccccc3)oc2c1	–	inactive: -2.98%
O=C(COC(=O)c1cccc(S(=O)(=O)N2CCc3ccccc32)c1)Nc1ccc(Cl)cn1	inconclusive: 0.92 µM [activator, full curve, poor fit]	–
O=C(NCc1ccc(Cl)cc1)C(=O)NCC(c1cccnc1)N1CCN(c2ccc(F)cc2)CC1 (stereo not drawn)	inconclusive: 4.61 µM [activator, full curve, poor fit]	–
CCCCCCSc1cccc(-c2nc3ccccn3c2NCc2ccccc2)c1	inconclusive: 6.51 µM [activator, single point]	–
COc1ccccc1Nc1nc2cc(C)ccc2cc1C#N	inconclusive: 18.4 µM [activator, partial curve, poor fit]	–
CC(=O)c1c(C)nc(Nc2nc(C)c3cc(C)ccc3n2)nc1C	–	inactive: -18.5%
COc1ccc(CCNCc2c(-c3ccccc3)n(C)c3ccccc23)cc1	inconclusive: 29.1 µM [activator, single point]	–
O=C(/C=C1\C(=O)Nc2ccccc21)/C=C1\C(=O)Nc2ccccc21	inconclusive: 18.4 µM [activator, single point]	–
CC[C@]12c3[nH]c4ccc(Cl)cc4c3CCN1C(=O)[C@@H](CC(=O)NC/C=C(\C)CCC=C(C)C)C[C@@H]2C(=O)N1CCN(C(=O)C2CC2)CC1	inconclusive: 16.4 µM [activator, single point]	–
N[C@@H](Cc1cnc[nH]1)C(=O)Nc1ccc2ccccc2c1	inconclusive: 18.4 µM [activator, single point]	–
Cc1ccc(-c2cc(C(F)(F)F)c(C#N)c(SCCC#N)n2)o1	active: 9.2 µM	–
CCN1CCCC1CN(Cc1cc2ccc(C)cc2[nH]c1=O)C(=S)Nc1cccc(OC)c1 (stereo not drawn)	inconclusive: 25.9 µM [activator, single point]	–
COc1ccccc1NS(=O)(=O)c1cccc(NC(=O)C2CC2)c1	inconclusive: 29.1 µM [activator, single point]	–
O=C(Nc1ccc(S(=O)(=O)NC2=NCCCCC2)cc1)c1ccc(C(F)(F)F)cc1	–	inactive: 0.633%
CCN(c1ccc(OC)cc1)S(=O)(=O)c1nnc(NC(=O)C2CCCCC2)s1	inconclusive: 29.1 µM [activator, single point]	–
